Measurements as given in PubChem BioAssay AID588497 (NMMLSC, 2011).
The whole screen tested about 360,000 compounds, of which about 780 (0.22%) were called active. Inconclusive means that the source gave no clear call. Such entries were picked first, then a sample of the others. Cut-off read from the data, not from the text of the source: active = inhibition above about 35% (passing the limit was not always enough); inconclusive = no clear call, values can overlap the other calls.

Each molecule was assayed on Botulinum neurotoxin type F light chain protease (Clostridium botulinum) (assay: BoNT/F light chain protease inhibitors, primary screen, biochemical, flow cytometry, MLPCN library (AID 588497; note: plate controls were buffer without enzyme for full effect and enzyme alone for no effect)). Conditions: Multiplex microsphere protease cleavage assay, at 10 µM, hits give high values.

Structure (SMILES) | inhibition
Cc1cc(N2CCOCC2)nc2ccc(NC(=O)CCC(=O)N3CCN(c4ccccc4F)CC3)cc12 | inactive: 7.2%
O=C(CCNC(=O)c1ccc(Cl)cc1)NCc1cccc(C(F)(F)F)c1 | inconclusive: -49.8%
O=C(COC(=O)/C=C/c1cccc(C(F)(F)F)c1)Nc1cccc(S(=O)(=O)NC2=NCCC2)c1 | inactive: -5.7%
COc1cc(CNCc2ccccc2Cl)ccc1OCC(=O)NC1CCCCC1 | inactive: -6.3%
CCOC(=O)C1C(c2ccccc2)C(C(=O)OCC)C1c1ccccc1 (stereo not drawn) | inactive: -7.3%
CC(=O)Nc1ccc(NC(=O)c2ccc(CN3CCc4ccccc4C3)cc2)cc1 | inconclusive: -30.8%
COc1ccc2c(COC(=O)c3cccc(S(=O)(=O)NCC(C)C)c3)cc(=O)oc2c1 | inactive: 2.7%
COc1ccc(Cl)cc1-n1c(=S)sc2c(=O)[nH]c(SCC(=O)NCCC(C)C)nc21 | inconclusive: -5%
c1ccc(-c2csc3ncnc(NCc4ccccn4)c23)cc1 | inconclusive: -6%
Cc1cc(NC(=O)c2ccc3c(c2)C(=O)N(CCC(C)C)C3=O)no1 | inconclusive: 5.4%
COc1ccc(CCNS(=O)(=O)c2cccc([N+](=O)[O-])c2)cc1OC | inconclusive: -31.6%
Cc1ccc(NC(=O)Nc2cc(-c3ccccc3)nn2C)cc1Cl | inconclusive: 72.8%
C=CCN1/C(=C(\C#N)C2=NS(=O)(=O)c3ccccc32)N(C)c2ccccc21 | inactive: 1.7%
CN1CCN(/N=C/c2c[nH]c3ccccc23)CC1 | inconclusive: -7.9%
CC(O)CNc1nc(NCc2ccccc2)c2cnn(C)c2n1 (stereo not drawn) | inactive: 1.5%
Cc1ccc(-c2[nH]ncc2C(=O)c2ccccc2C)c(O)c1 | active: 35.7%
CCCCN(C(=O)COC(=O)CSc1cc(C)c2ccccc2n1)c1c(N)n(CCC)c(=O)[nH]c1=O | inactive: -4.1%
Cc1ccccc1NC(=O)CCCCC(=O)Nc1ccccc1C | inconclusive: -32.7%
Cc1cc(Nc2cccc(Br)c2)c2ccccc2n1 | inconclusive: 48.2%
N=c1n(CC(=O)c2cccs2)c2ccccc2n1Cc1ccccc1 | inconclusive: 41.4%

Structure (SMILES) | inhibition
O=S(=O)(NCCN1CCOCC1)c1cc(Cl)c(Cl)cc1Cl | inconclusive: -33.4%
O=C(c1ccccc1)n1ccn(-c2ccccc2)c1=S | inactive: 1.3%
O=C1C2C3c4ccccc4C(c4ccccc43)[C@@H]2C(=O)N1c1ccccn1 (stereo partly drawn) | inconclusive: 94.6%
CC(C)(C)C(=O)Nc1ccc(-c2cn3ccsc3n2)cc1 | inconclusive: 19.7%
C=CCOc1nc(-c2ccccc2Cl)nc2ccccc12 | inconclusive: 22.1%
COC(=O)[C@@]12CCCN1[C@H](c1ccc(-c3ccc(Cl)c(Cl)c3)cc1)[C@H]1C(=O)N(C)C(=O)[C@H]12 | inactive: -5.6%
COc1ccccc1Cn1c(=S)[nH]c2cc(C(=O)N3CCCC3)ccc2c1=O | inactive: -13.6%
CCOc1cc(/C=N/NC(=O)CSc2nncn2C)ccc1OCC(N)=O | inconclusive: 2.8%
CSc1ccccc1NC(=O)Nc1cccc(Cl)c1Cl | inactive: -0.1%
Nc1ccc2c(c1)N=[N+]([O-])c1cc(N)ccc1C2 | inconclusive: 13.3%
CCC1(c2ccc(OC)cc2)NC(=O)N(CC(=O)N2CCc3ccccc32)C1=O (stereo not drawn) | inconclusive: -3.1%
COc1ccccc1NC(=O)N1CCc2[nH]c3ccc(F)cc3c2C1 | inconclusive: -1.6%
NC(=O)c1ccc(NC(=O)c2cccc3c2OCCCO3)cc1 | inconclusive: -25.3%
Cc1cc(C(=O)COC(=O)C2=COCCO2)c(C)n1-c1cccc(F)c1 | inconclusive: -23.3%
COc1ccccc1Nc1nc(=O)[nH]nc1C | inactive: 3.7%
Cc1ccc(S(=O)(=O)n2c(N)nc3ccccc32)cc1 | inconclusive: -32.9%
CCNC1CCS(=O)(=O)C1 (stereo not drawn) | inconclusive: -217%
Cn1c(=O)oc2cc(S(=O)(=O)NCc3ccc(Cl)cc3)ccc21 | inactive: 1.3%
O=C(CCCO)NNc1c2ccccc2nc2ccccc12 | inconclusive: -67.8%
CCOC(=O)NCc1ccc(S(=O)(=O)Nc2ccc(C)cc2)cc1 | inconclusive: -28.3%

Structure (SMILES) | inhibition
Cc1ccc(N2CCN(C(=O)c3cccs3)CC2)c(C)c1 | inconclusive: -17.5%
Cc1cc(/C=C2\C(=N)N3N=C(c4ccco4)SC3=NC2=O)c(C)n1Cc1ccccc1 | inconclusive: 16.3%
COc1ccccc1N=NC1C(=O)N(C(N)=S)N=C1C (stereo not drawn) | inconclusive: 6.1%
O=C(CCCN1C(=O)CCC1=O)Nc1cccc(C(F)(F)F)c1 | inconclusive: -21.6%
CCOc1cc(C2NC(=O)NC(C)=C2C(=O)OCC2CCCCC2)ccc1O (stereo not drawn) | inconclusive: 21.7%
CN(C(=O)c1cccc(Br)c1)C1CCS(=O)(=O)C1 (stereo not drawn) | inactive: -4.6%
CC1CCN(S(=O)(=O)c2cc3c4c(c2)C(C)C(=O)N4CCC3)CC1 (stereo not drawn) | inactive: 13.5%
Cc1cc(C)c(S(=O)(=O)N2CCN(C(=O)c3cc4ccccc4o3)CC2)c(C)c1 | inconclusive: -2.9%
COC(=O)c1sccc1S(=O)(=O)Nc1ccc(N2CCCCC2)cc1 | inconclusive: -19.5%
C/C(=N\O)c1cccc(Br)c1 | inconclusive: 25.8%
Cc1noc(C)c1CN1C(=O)NC2(CCCCCCC2)C1=O | inconclusive: -11.3%
COC(=O)[C@H](Cc1ccccc1)NC(=O)N1CCN(c2ccccc2)CC1 | inconclusive: -18.6%
CCc1ccc(OCC(O)CN2CCN(CCO)CC2)cc1 (stereo not drawn) | inconclusive: -26.7%
CS(=O)(=O)N(CC(=O)Nc1ccc(Br)cc1F)C1CCCCC1 | inconclusive: -9%
CCc1cc(C(=O)c2ccc(Br)cc2)c(NC(=O)CN(CC)CC)s1 | inconclusive: -18.7%
CCN(CC)C(=O)c1cccc(-c2csc(C(O)c3cccc(OC)c3)n2)c1 (stereo not drawn) | inactive: 0%
S=c1[nH]nc(COc2ccccc2)n1/N=C/C=C/c1ccco1 | inconclusive: -50.2%
CCSc1nc2ccccc2n1CCOc1ccccc1 | inconclusive: 5%

Some of the entries so far, as tab-separated lines:
Structure (SMILES)	inhibition
Cc1cc(C)c(S(=O)(=O)N2CCN(C(=O)c3cc4ccccc4o3)CC2)c(C)c1	inconclusive: -2.9%
COC(=O)c1sccc1S(=O)(=O)Nc1ccc(N2CCCCC2)cc1	inconclusive: -19.5%
